PubChem BioAssay AID1259308 | NCATS, 2017

- Screen: 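Genes whose loss raises luciferase production in HEK293 cells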 (primary screen)
- System: human HEK293 embryonic kidney cells stably expressing firefly luciferase (HEK-CMV-Luc2-Hygro)
- Knock-down reagent: single siRNA against human genes, 0.8 pmol siRNA per well
- Time to read-out: 72 h
- Detection: 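Reporter luminescence and viable-cell signal on separate replicate plates, given as percent of non-targeting control and median/MAD z-scores, plus per-cell luciferase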
- Scale: total luciferase, z-score and total luciferase, % of control: higher = more reporter protein produced; luciferase per cell, z-score: higher = more reporter output per viable cell; viable cells, % of control: higher = more viable cells
- Call rule: 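Active when the median/MAD z-score for overall luciferase is greater than 3; a gene was taken forward for validation with new siRNAs if at least two of its three siRNAs passed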
- Meaning of the calls: active = raised luciferase; inactive = no rise
Here is a random part of about 59,000 reagents. About 1,510 of them (2.6%) were called active. 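Calls use total luciferase alone and ignore viability, so some active siRNAs may act by altering cell number.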 Reagent sequences are not shown.

The first 6 entries, to show the layout:
| gene knocked down | PubChem SID | total luciferase, z-score | total luciferase, % of control | luciferase per cell, z-score | viable cells, % of control | outcome |
| --- | --- | --- | --- | --- | --- | --- |
| IFNL3 (interferon lambda 3) | SID160724976 | 5.83 | 198 | 3.93 | 78.5 | active |
| IFNL3 (interferon lambda 3) | SID160724977 | 1.19 | 106 | 0.196 | 112 | inactive |
| IFNL3 (interferon lambda 3) | SID160762715 | 2.83 | 138 | 2.33 | 83.5 | inactive |
| SLC22A4 | SID160717005 | -1.16 | 58.8 | -1.58 | 99.7 | inactive |
| SLC22A4 | SID160717006 | 0.405 | 89.9 | 0.577 | 86.3 | inactive |
| SLC22A4 | SID160717007 | 0.714 | 96.1 | 1.66 | 69.4 | inactive |

The listing, repeating the preview:
| gene knocked down | PubChem SID | total luciferase, z-score | total luciferase, % of control | luciferase per cell, z-score | viable cells, % of control | outcome |
| --- | --- | --- | --- | --- | --- | --- |
| IFNL3 (interferon lambda 3) | SID160724976 | 5.83 | 198 | 3.93 | 78.5 | active |
| IFNL3 (interferon lambda 3) | SID160724977 | 1.19 | 106 | 0.196 | 112 | inactive |
| IFNL3 (interferon lambda 3) | SID160762715 | 2.83 | 138 | 2.33 | 83.5 | inactive |
| SLC22A4 | SID160717005 | -1.16 | 58.8 | -1.58 | 99.7 | inactive |
| SLC22A4 | SID160717006 | 0.405 | 89.9 | 0.577 | 86.3 | inactive |
| SLC22A4 | SID160717007 | 0.714 | 96.1 | 1.66 | 69.4 | inactive |
| LRRC14B (leucine rich repeat containing 14B) | SID160725225 | -0.273 | 76.5 | -0.489 | 97.2 | inactive |
| LRRC14B (leucine rich repeat containing 14B) | SID160766148 | 4.3 | 167 | 3.18 | 81 | active |
| LRRC14B (leucine rich repeat containing 14B) | SID160766149 | -1.57 | 50.6 | -1.01 | 73.8 | inactive |
| PLCH1 (phospholipase C eta 1) | SID160734918 | 1.43 | 110 | 2.14 | 70.1 | inactive |
| PLCH1 (phospholipase C eta 1) | SID160734929 | 0.0963 | 83.8 | -0.108 | 96.3 | inactive |
| PLCH1 (phospholipase C eta 1) | SID160734940 | 0.183 | 85.5 | -0.223 | 101 | inactive |
| SLC24A1 | SID160721678 | 0.38 | 89.4 | 0.0455 | 98.8 | inactive |
| SLC24A1 | SID160721679 | -0.103 | 79.8 | -0.74 | 108 | inactive |
| SLC24A1 | SID160721680 | 1.45 | 111 | 1.85 | 76.1 | inactive |
| GH1 (growth hormone 1) | SID160727833 | -1.24 | 57.2 | -0.299 | 69.2 | inactive |
| GH1 (growth hormone 1) | SID160727834 | -0.322 | 75.5 | -0.066 | 85.8 | inactive |
| GH1 (growth hormone 1) | SID160730947 | 3.62 | 154 | 2.08 | 99.5 | active |
| ZNF830 (zinc finger protein 830) | SID160754020 | -0.142 | 79.1 | -0.618 | 104 | inactive |
| ZNF830 (zinc finger protein 830) | SID160754023 | -0.642 | 69.1 | -0.692 | 92.7 | inactive |
| ZNF830 (zinc finger protein 830) | SID160754024 | 0.0499 | 82.9 | 0.124 | 89.6 | inactive |
| POU2AF3 (POU class 2 homeobox associating factor 3) | SID160755799 | 1.11 | 104 | 1.26 | 83.4 | inactive |
| POU2AF3 (POU class 2 homeobox associating factor 3) | SID160755800 | -0.321 | 75.5 | -0.428 | 94.5 | inactive |
| POU2AF3 (POU class 2 homeobox associating factor 3) | SID160755802 | 0.302 | 87.9 | -0.041 | 99.3 | inactive |
| LRRC56 (leucine rich repeat containing 56) | SID160732351 | 1.05 | 103 | -0.0928 | 118 | inactive |
| LRRC56 (leucine rich repeat containing 56) | SID160755205 | 0.915 | 100 | 0.0395 | 111 | inactive |
| LRRC56 (leucine rich repeat containing 56) | SID160755206 | 1.08 | 103 | 1.21 | 84 | inactive |
| USH1G (USH1 protein network component sans) | SID160756205 | -1.04 | 61.2 | -0.438 | 76.7 | inactive |
| USH1G (USH1 protein network component sans) | SID160756206 | 1.07 | 103 | 1.79 | 72 | inactive |
| USH1G (USH1 protein network component sans) | SID160756207 | 0.416 | 90.2 | 0.123 | 97.5 | inactive |
| PTPRT (protein tyrosine phosphatase receptor type T) | SID160729986 | 1.57 | 113 | 1.31 | 89.6 | inactive |
| PTPRT (protein tyrosine phosphatase receptor type T) | SID160729987 | 0.739 | 96.6 | -0.21 | 114 | inactive |
| PTPRT (protein tyrosine phosphatase receptor type T) | SID160729989 | -0.575 | 70.5 | -1.35 | 112 | inactive |
| VTA1 (vesicle trafficking 1) | SID160740959 | -0.841 | 65.2 | -0.657 | 86.6 | inactive |
| VTA1 (vesicle trafficking 1) | SID160740960 | 0.458 | 91 | 0.13 | 98.3 | inactive |
| VTA1 (vesicle trafficking 1) | SID160740961 | 1.1 | 104 | 1.87 | 70.9 | inactive |
| ZNF962P (zinc finger protein 962, pseudogene) | SID160772817 | -0.141 | 79.1 | -0.0971 | 90.7 | inactive |
| ZNF962P (zinc finger protein 962, pseudogene) | SID160772818 | 0.204 | 85.9 | -0.428 | 108 | inactive |
| ZNF962P (zinc finger protein 962, pseudogene) | SID160772819 | -0.604 | 69.9 | -0.0533 | 79.2 | inactive |
| RHOH (ras homolog family member H) | SID160719999 | 0.54 | 92.6 | -0.0371 | 105 | inactive |
| RHOH (ras homolog family member H) | SID160720010 | 1.51 | 112 | 0.722 | 103 | inactive |
| RHOH (ras homolog family member H) | SID160720023 | 0.231 | 86.5 | 1.22 | 70.1 | inactive |
| CLIP2 (CAP-Gly domain containing linker protein 2) | SID160718811 | 0.201 | 85.9 | 0.0532 | 94.6 | inactive |
| CLIP2 (CAP-Gly domain containing linker protein 2) | SID160718812 | -0.113 | 79.6 | -0.454 | 100 | inactive |
| CLIP2 (CAP-Gly domain containing linker protein 2) | SID160718813 | 1.36 | 109 | 0.629 | 103 | inactive |
| CRISPLD2 (cysteine rich secretory protein LCCL domain containing 2) | SID160735055 | -1.46 | 52.8 | -1.84 | 95.7 | inactive |
| CRISPLD2 (cysteine rich secretory protein LCCL domain containing 2) | SID160751352 | -0.777 | 66.4 | -0.803 | 91.7 | inactive |
| CRISPLD2 (cysteine rich secretory protein LCCL domain containing 2) | SID160751353 | 2.9 | 139 | 2.63 | 78 | inactive |
| MS4A14 (membrane spanning 4-domains A14) | SID160735111 | -0.416 | 73.6 | -0.946 | 106 | inactive |
| MS4A14 (membrane spanning 4-domains A14) | SID160752597 | 1.11 | 104 | 0.168 | 111 | inactive |
| MS4A14 (membrane spanning 4-domains A14) | SID160752598 | -0.356 | 74.8 | -0.605 | 98 | inactive |
| VPS8 (VPS8 subunit of CORVET complex) | SID160736090 | -0.864 | 64.7 | -0.678 | 86.4 | inactive |
| VPS8 (VPS8 subunit of CORVET complex) | SID160736091 | -0.582 | 70.3 | -0.694 | 94.3 | inactive |
| VPS8 (VPS8 subunit of CORVET complex) | SID160736092 | 0.0403 | 82.7 | -0.16 | 96.4 | inactive |
| TCOF1 (treacle ribosome biogenesis factor 1) | SID160717844 | 0.0392 | 82.7 | -0.0284 | 93.1 | inactive |
| TCOF1 (treacle ribosome biogenesis factor 1) | SID160717846 | 1.08 | 103 | -0.0292 | 116 | inactive |
| TCOF1 (treacle ribosome biogenesis factor 1) | SID160717847 | 2.73 | 136 | 2.18 | 85.7 | inactive |
